Values from PubChem BioAssay AID1159578 (Peter MacCallum Cancer Centre, 2015).

- Test: 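Knock-downs that alter how fast lymphatic endothelial cells migrate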 (primary screen)
- System: human lymphatic endothelial cells
- Reagents: siRNA pool against human genes, 40 nM
- Duration: 48 h after transfection
- Measurement: 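Cells stained with dye and imaged after a scratch; covered wound area and nuclei counted, duplicates averaged, migration set against mock wells and turned into a robust z-score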
- Reading the numbers: migration robust z-score: higher = faster migration into the scratch; migration relative to mock: higher = more scratch area covered than mock; nuclei per well: higher = more cells in the well
- Active means: 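Pools averaging fewer than 3300 nuclei are never called; remaining pools count as changed when migration robust z lies outside -2 to 2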
- Meaning of the calls: active = migration changed; inactive = no migration change, or too few cells
Here is one part, drawn at random, of about 18,000 reagents tested. Of all reagents, about 1,030 (5.7%) are marked active. 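Inactive calls also include pools with fewer than 3300 nuclei, whose migration was not assessed.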 Raw values vary from plate to plate and are shown uncorrected.

Gene | migration robust z-score | migration class with cell-count check | migration relative to mock | nuclei per well, duplicate mean | activity call
ANKRD2 | -1.43 | migration z between -2 and 2; enough cells | 0.52 | 4552 | inactive
NAPB | -1.58 | migration z between -2 and 2; enough cells | 0.5 | 5218 | inactive
SCARB2 | 0.29 | migration z between -2 and 2; enough cells | 0.86 | 5666 | inactive
TEAD4 | -0.72 | migration z between -2 and 2; enough cells | 0.66 | 5517 | inactive
SNX13 | -0.7 | migration z between -2 and 2; enough cells | 0.7 | 5608 | inactive
SV2C | -0.55 | migration z between -2 and 2; enough cells | 0.74 | 4570 | inactive
NLRP13 | -1.06 | migration z between -2 and 2; enough cells | 0.6 | 5594 | inactive
INSL4 | 1.36 | migration z between -2 and 2; enough cells | 1.24 | 6441 | inactive
YPEL2 | 0.66 | migration z between -2 and 2; enough cells | 1.05 | 5226 | inactive
HCN3 | -0.08 | migration z between -2 and 2; enough cells | 0.79 | 6266 | inactive
CSNK1D | 0.31 | migration z between -2 and 2; enough cells | 0.86 | 4286 | inactive
SIT1 | -0.66 | migration z between -2 and 2; enough cells | 0.71 | 4875 | inactive
MFN2 | 0.55 | migration z between -2 and 2; enough cells | 0.91 | 4963 | inactive
LIMD1 | 1.1 | migration z between -2 and 2; enough cells | 1.17 | 5009 | inactive
PKMYT1 | -0.29 | migration z between -2 and 2; enough cells | 0.75 | 3648 | inactive
HCFC1 | 0.36 | migration z between -2 and 2; enough cells | 0.88 | 6214 | inactive
NPPA | 0.94 | migration z between -2 and 2; enough cells | 1.12 | 5054 | inactive
TAF10 | 0.28 | migration z between -2 and 2; enough cells | 0.86 | 5286 | inactive
P3H2 | -0.46 | migration z between -2 and 2; enough cells | 0.72 | 4993 | inactive
C6orf163 | -0.48 | migration z between -2 and 2; enough cells | 0.76 | 4584 | inactive

An excerpt from above, limited to “migration class with cell-count check”.
TEAD4	migration z between -2 and 2; enough cells
SNX13	migration z between -2 and 2; enough cells
SV2C	migration z between -2 and 2; enough cells
NLRP13	migration z between -2 and 2; enough cells
INSL4	migration z between -2 and 2; enough cells
YPEL2	migration z between -2 and 2; enough cells
HCN3	migration z between -2 and 2; enough cells
CSNK1D	migration z between -2 and 2; enough cells

The results go on.
Gene | migration robust z-score | migration class with cell-count check | migration relative to mock | nuclei per well, duplicate mean | activity call
FHL5 | 0.88 | migration z between -2 and 2; enough cells | 0.98 | 6197 | inactive
MOB3B | -0.23 | migration z between -2 and 2; enough cells | 0.83 | 4622 | inactive
SLC10A2 | 0.24 | migration z between -2 and 2; enough cells | 0.85 | 5003 | inactive
NCOA1 | 0.57 | migration z between -2 and 2; enough cells | 0.92 | 4878 | inactive
SLN | 1.19 | migration z between -2 and 2; enough cells | 1.2 | 6890 | inactive
FOXP1 | 0.05 | migration z between -2 and 2; enough cells | 0.9 | 5851 | inactive
TMEM115 | -0.13 | migration z between -2 and 2; enough cells | 0.86 | 6094 | inactive
GPC5 | -0.04 | migration z between -2 and 2; enough cells | 0.88 | 5082 | inactive
MBD6 | 0.85 | migration z between -2 and 2; enough cells | 1.1 | 6726 | inactive
OR2A14 | -0.17 | migration z between -2 and 2; enough cells | 0.84 | 5552 | inactive
MAP3K10 | 1.53 | migration z between -2 and 2; enough cells | 1.1 | 5264 | inactive
RUFY3 | -0.56 | migration z between -2 and 2; enough cells | 0.74 | 5888 | inactive
OR5T1 | -1.1 | migration z between -2 and 2; enough cells | 0.6 | 5799 | inactive
GALNT13 | -0.13 | migration z between -2 and 2; enough cells | 0.78 | 5852 | inactive
RTL8A | -0.82 | migration z between -2 and 2; enough cells | 0.67 | 5236 | inactive
CCT3 | 0.15 | migration z between -2 and 2; enough cells | 0.84 | 7000 | inactive
FAM222B | -2.4 | migration z below -2; enough cells | 0.26 | 4972 | active
HSPA13 | -0.98 | migration z between -2 and 2; enough cells | 0.62 | 5473 | inactive
IL9R | -2.08 | migration z below -2; enough cells | 0.4 | 5770 | active
LAIR2 | 0.68 | migration z between -2 and 2; enough cells | 1.06 | 5010 | inactive
WARS1 | -0.5 | migration z between -2 and 2; enough cells | 0.71 | 6356 | inactive
CHD2 | 0.36 | migration z between -2 and 2; enough cells | 0.88 | 5580 | inactive
BCCIP | -0.42 | migration z between -2 and 2; enough cells | 0.72 | 5262 | inactive
VPS26B | 2.45 | migration z above 2; enough cells | 1.52 | 6548 | active
HSPA6 | 0.18 | migration z between -2 and 2; enough cells | 0.84 | 4801 | inactive
HAVCR2 | -1.04 | migration z between -2 and 2; enough cells | 0.6 | 5691 | inactive
ARMH4 | -1.58 | migration z between -2 and 2; enough cells | 0.47 | 3539 | inactive
CCN3 | -0.21 | migration z between -2 and 2; enough cells | 0.76 | 4234 | inactive
LDAF1 | 0.98 | migration z between -2 and 2; enough cells | 1.14 | 5244 | inactive
ZDHHC8 | 0.3 | migration z between -2 and 2; enough cells | 0.96 | 6280 | inactive
ZBED2 | -0.05 | migration z between -2 and 2; enough cells | 0.87 | 5583 | inactive
CYP2A13 | 1.74 | migration z between -2 and 2; enough cells | 1.14 | 4599 | inactive
DEFB104B | -0.62 | migration z between -2 and 2; enough cells | 0.73 | 7486 | inactive
ZNF587 | -0.92 | migration z between -2 and 2; enough cells | 0.64 | 4288 | inactive
BNIP2 | 0.08 | migration z between -2 and 2; enough cells | 0.82 | 5454 | inactive
PKD2L2 | 0.23 | migration z between -2 and 2; enough cells | 0.85 | 4522 | inactive
FIBIN | -1.08 | migration z between -2 and 2; enough cells | 0.6 | 4894 | inactive
